# Primary screen of a compound library

By UniProt entry, the sequences of proteins in these tests, tags left out. Residues count along the entry.
UniProt P9WNZ1, whole entry: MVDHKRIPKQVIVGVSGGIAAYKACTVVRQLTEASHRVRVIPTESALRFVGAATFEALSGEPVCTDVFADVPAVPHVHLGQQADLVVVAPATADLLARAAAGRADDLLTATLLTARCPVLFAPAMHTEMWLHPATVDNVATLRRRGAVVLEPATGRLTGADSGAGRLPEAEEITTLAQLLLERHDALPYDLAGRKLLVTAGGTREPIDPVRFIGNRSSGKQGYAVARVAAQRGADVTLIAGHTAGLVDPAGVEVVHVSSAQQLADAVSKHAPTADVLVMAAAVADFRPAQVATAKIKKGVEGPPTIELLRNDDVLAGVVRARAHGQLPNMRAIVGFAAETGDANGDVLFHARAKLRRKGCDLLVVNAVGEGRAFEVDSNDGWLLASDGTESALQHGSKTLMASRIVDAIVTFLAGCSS
UniProt I6X8D2, whole entry: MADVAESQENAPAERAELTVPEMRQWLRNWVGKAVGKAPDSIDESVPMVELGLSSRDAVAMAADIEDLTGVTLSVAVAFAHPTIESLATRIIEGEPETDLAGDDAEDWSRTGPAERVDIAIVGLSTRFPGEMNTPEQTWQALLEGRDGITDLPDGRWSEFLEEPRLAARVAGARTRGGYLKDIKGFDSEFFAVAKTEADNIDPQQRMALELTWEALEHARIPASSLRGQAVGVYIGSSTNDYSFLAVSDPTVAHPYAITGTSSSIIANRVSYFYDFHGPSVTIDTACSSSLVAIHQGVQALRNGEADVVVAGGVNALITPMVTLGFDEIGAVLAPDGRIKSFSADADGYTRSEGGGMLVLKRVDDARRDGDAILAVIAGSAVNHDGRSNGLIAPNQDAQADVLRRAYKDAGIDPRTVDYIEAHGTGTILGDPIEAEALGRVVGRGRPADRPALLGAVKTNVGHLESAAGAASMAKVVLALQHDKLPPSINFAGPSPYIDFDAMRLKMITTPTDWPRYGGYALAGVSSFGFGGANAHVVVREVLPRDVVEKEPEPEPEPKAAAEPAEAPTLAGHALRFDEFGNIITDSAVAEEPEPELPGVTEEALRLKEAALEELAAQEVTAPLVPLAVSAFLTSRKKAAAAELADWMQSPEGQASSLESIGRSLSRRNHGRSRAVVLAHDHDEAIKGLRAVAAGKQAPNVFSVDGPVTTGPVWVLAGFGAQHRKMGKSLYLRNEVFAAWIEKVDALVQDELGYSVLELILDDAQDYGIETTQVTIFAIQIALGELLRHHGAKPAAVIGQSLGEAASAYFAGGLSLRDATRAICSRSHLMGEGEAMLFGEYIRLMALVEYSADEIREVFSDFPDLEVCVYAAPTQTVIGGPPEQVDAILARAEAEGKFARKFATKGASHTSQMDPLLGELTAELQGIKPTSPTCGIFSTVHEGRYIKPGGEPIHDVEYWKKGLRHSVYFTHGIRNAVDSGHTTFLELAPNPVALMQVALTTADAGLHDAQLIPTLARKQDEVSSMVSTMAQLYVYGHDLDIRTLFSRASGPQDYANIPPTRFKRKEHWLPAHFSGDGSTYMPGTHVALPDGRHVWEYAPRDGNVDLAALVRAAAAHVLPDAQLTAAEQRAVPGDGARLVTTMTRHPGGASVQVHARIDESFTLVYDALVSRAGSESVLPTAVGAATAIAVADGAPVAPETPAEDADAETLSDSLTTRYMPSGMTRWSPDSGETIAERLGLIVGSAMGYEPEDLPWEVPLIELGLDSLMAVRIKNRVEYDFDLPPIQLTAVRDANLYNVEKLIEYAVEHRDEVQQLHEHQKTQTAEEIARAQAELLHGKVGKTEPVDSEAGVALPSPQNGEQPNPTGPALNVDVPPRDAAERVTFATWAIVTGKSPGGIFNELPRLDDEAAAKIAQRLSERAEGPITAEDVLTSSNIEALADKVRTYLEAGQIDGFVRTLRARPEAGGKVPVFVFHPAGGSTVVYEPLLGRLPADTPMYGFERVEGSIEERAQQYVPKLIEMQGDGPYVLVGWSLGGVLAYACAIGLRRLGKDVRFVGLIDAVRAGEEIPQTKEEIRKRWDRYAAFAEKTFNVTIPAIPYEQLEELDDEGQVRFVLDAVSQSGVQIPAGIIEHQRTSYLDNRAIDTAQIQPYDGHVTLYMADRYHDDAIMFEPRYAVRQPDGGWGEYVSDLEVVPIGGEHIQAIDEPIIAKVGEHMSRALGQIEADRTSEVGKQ
UniProt P9WFT3, whole entry: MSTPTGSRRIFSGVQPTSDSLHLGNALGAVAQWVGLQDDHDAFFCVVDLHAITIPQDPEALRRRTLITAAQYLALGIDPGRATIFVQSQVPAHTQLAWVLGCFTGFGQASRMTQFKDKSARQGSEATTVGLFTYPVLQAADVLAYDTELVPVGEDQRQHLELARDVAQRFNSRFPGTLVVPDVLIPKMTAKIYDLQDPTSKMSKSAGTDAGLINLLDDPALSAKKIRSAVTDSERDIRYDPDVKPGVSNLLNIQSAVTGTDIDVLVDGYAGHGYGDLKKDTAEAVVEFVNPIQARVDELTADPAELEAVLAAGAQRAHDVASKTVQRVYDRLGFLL
UniProt A4I591, 1-473: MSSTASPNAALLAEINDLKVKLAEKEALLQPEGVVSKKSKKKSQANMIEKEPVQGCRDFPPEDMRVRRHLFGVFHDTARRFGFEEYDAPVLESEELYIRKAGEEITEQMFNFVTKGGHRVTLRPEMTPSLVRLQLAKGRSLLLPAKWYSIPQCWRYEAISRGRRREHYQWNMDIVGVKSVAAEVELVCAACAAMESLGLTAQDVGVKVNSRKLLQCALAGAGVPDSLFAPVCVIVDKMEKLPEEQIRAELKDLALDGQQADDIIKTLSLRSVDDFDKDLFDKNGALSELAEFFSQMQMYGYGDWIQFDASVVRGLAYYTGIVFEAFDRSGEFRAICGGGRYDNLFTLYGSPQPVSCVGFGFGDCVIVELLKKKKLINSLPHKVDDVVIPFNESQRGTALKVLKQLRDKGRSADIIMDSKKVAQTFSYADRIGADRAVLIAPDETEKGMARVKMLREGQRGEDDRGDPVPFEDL

Measurements from “University of Dundee, Small-Polar-MMV Screening Library” (2021), ChEMBL document CHEMBL3988442.

A: 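Enzyme assay of CoaBC with a phosphate dye (Biomol Green) read at 650 nm. Target: Coenzyme A biosynthesis protein CoaBC, Mycobacterium tuberculosis (UniProt P9WNZ1). Compounds at 30 µM. Higher reads as stronger inhibition, judged from the few compounds that gave an IC50. Most strong results did not repeat in a second test. Size under these conditions: about 67,000 compounds, about 40 of them at 50% or above in at least one test.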
B: 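Polyketide synthase Pks13, Mycobacterium tuberculosis (UniProt I6X8D2). Enzyme assay of the thioesterase domain of polyketide synthase 13; the read-out is not stated. Concentration: 30 µM. The record gives no direction; the compounds picked for IC50 retests had high values, so higher reads as stronger inhibition. Of about 67,000 compounds tested this way, about 300 (0.46%) reached 50% or more in at least one test.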
C: 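Enzyme assay of tryptophanyl-tRNA synthetase; the read-out is not stated. Target: Tryptophan-tRNA ligase, Mycobacterium tuberculosis (UniProt P9WFT3). Concentration: 10 µM. Higher most likely means stronger inhibition; the record gives no direction and few retests gave an IC50. Of about 65,000 compounds tested this way, about 64 (0.098%) reached 50% or more in at least one test.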
D: 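Enzyme assay of histidyl-tRNA synthetase; the read-out is not stated. Target: Histidine-tRNA ligase, Leishmania infantum (UniProt A4I591). Compounds at 30 µM. Direction is inferred from retests: higher values go with stronger inhibition. The assay is labelled LdHisRS but filed under L. infantum. Of about 69,000 compounds tested this way, about 410 (0.6%) reached 50% or more in at least one test.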

Values are the deposited “Percent Effect”, in %.
The controls that fix the scale are not given in the record; negative values are as filed.
Compounds were drawn at random from those tested, without regard to their results.

Compound: Cc1cncc(C(=O)N2CCNCC2C(=O)NCc2ccncc2)c1 (stereo not drawn)
A: 1.282
B: -38.26
C: -0.2141
D: 11.97

Compound: CC(=O)N1CCCC1c1cccc(NCc2ccccc2F)n1 (stereo not drawn)
A: 1.961
B: -12.83
D: 13.54

Compound: CC(C)CCn1[nH]c(CNc2ccc(F)cc2)nc1=O
A: 2.911
B: -3.993
C: 2.576
D: 10

Compound: CN(C)c1ccc(NC(=O)C2CN(Cc3ccccc3)CCO2)cn1 (stereo not drawn)
A: -6.198
B: 24.38
C: 5.431
D: 29.46

Compound: Cc1cc(C)cc(C(=O)Nc2cccc(CN3CCCC3C(N)=O)c2)c1 (stereo not drawn)
A: -19.83
B: -7.42
C: -8.907
D: 8.036

Compound: Cn1cc(C2COC3(CCN(C(=O)c4ccccn4)CC3)C2)cn1 (stereo not drawn)
A: 4.5
B: -7.34
C: 0.7819
D: 12

Compound: CC1CCC(O)(CN2CCN(CCNC(=O)C3CCC3)CC2)CC1 (stereo not drawn)
A: 4.497
B: -43.8
C: -1.271
D: 6.897

Compound: Cc1ccc(C(=O)N2CC[C@]3(C[C@@H](OCc4ccccn4)CO3)C2)nc1
A: 0.25
B: -19.99
C: 5.473
D: 2

Compound: CCN1CCOC(CNCc2cnc(N(CC)CC)s2)C1 (stereo not drawn)
A: -6.446
B: -36.9
C: 2.203
D: 18.37

Compound: COc1ccc(CC(C)Nc2cccc(SC)c2)cc1 (stereo not drawn)
A: 2.589
B: 57.2
C: -1.06
D: 20

Compound: CO[C@@H]1CCN(Cc2cnn(C)c2)[C@@H]2CN(Cc3cccnc3)C[C@@H]21
A: 8.02
B: 3.662
C: -2.351
D: 15.38

Compound: Cc1nc(C)n(C2CCCN(C(=O)c3cncnc3C)C2)n1 (stereo not drawn)
A: 1.023
B: -23.85
C: 2.912
D: 5.505

Compound: Cc1ccnc(OC[C@@]23CCO[C@@H]2CCN(S(C)(=O)=O)C3)n1
A: 0.611
B: -29.21
C: -0.541
D: 10.53

Compound: O=c1cc(CN2CCCC2)nc2n1CCCN(CC1CCOCC1)C2
A: 8.758
B: -20.24
C: 3.427
D: 10.53

Compound: CC(C)c1nsc(NC2CCOC3(CCCC3)C2)n1 (stereo not drawn)
A: -14.47
B: -26.21
C: -3.526
D: 2.857

Compound: CN(CC1CCCN(S(C)(=O)=O)C1)c1cnn(C)c1 (stereo not drawn)
A: 13.16
B: -8.059
C: 10.68
D: 18.42

Compound: NC(=O)Nc1cc(Br)cnc1OCC(F)(F)F
A: 4.839
B: -6.786
C: -0.3632
D: 14.04

Compound: CCSCCNC(=O)Nc1cc(C(=O)N2CCOCC2)ccc1Cl
A: 8
B: -8.582
C: -3.309
D: 10.26

Compound: OCC1CCCCN1Cc1nc(Cc2cccc(F)c2)no1 (stereo not drawn)
A: 9.804
B: -29.71
C: -5.236
D: -1.754

Compound: CN(C(=O)Cc1ccccc1Cl)C1CCN(c2ccccn2)CC1
A: 5.483
B: -18.48
C: -1.013
D: 5.172

Compound: CCc1nnc(NC(=O)N(CCOC)Cc2ccc(C)o2)s1
A: 4.177
B: -12.13
C: 2.166
D: 7.143

Compound: O=C1CC[C@H]2[C@H](CCN2C(=O)C2CCCO2)N1Cc1ccncc1 (stereo partly drawn)
A: -9.825
B: -29.97
C: 7.437
D: 11.65

Compound: CC(C)c1nnc(NC(=O)Cc2csc(-c3nnc[nH]3)n2)s1
A: 9.976
B: -18.49
C: -0.07262
D: 20

Compound: Cc1cc(C)n(C2CCN(Cc3nc4ccccc4n3C)CC2)n1
A: 12.12
B: 7.874
C: -0.5464
D: 5.674

Compound: COc1cc(CN2CCC(NC(=O)c3cccn3C)C2)cc(OC)c1 (stereo not drawn)
A: 3.121
B: -18.04
C: -0.6255
D: 4.959

2 of the entries, repeated:

Result for COc1ccc(CC(C)Nc2cccc(SC)c2)cc1 (stereo not drawn) was A: 2.589%; B: 57.2%; C: -1.06%; D: 20%.
Result for NC(=O)Nc1cc(Br)cnc1OCC(F)(F)F was A: 4.839%; B: -6.786%; C: -0.3632%; D: 14.04%.